We go through 1 molecule from PMC10404973.

The chains behind the UniProt entries cited, without tags or fusion partners.
UniProt Q03164: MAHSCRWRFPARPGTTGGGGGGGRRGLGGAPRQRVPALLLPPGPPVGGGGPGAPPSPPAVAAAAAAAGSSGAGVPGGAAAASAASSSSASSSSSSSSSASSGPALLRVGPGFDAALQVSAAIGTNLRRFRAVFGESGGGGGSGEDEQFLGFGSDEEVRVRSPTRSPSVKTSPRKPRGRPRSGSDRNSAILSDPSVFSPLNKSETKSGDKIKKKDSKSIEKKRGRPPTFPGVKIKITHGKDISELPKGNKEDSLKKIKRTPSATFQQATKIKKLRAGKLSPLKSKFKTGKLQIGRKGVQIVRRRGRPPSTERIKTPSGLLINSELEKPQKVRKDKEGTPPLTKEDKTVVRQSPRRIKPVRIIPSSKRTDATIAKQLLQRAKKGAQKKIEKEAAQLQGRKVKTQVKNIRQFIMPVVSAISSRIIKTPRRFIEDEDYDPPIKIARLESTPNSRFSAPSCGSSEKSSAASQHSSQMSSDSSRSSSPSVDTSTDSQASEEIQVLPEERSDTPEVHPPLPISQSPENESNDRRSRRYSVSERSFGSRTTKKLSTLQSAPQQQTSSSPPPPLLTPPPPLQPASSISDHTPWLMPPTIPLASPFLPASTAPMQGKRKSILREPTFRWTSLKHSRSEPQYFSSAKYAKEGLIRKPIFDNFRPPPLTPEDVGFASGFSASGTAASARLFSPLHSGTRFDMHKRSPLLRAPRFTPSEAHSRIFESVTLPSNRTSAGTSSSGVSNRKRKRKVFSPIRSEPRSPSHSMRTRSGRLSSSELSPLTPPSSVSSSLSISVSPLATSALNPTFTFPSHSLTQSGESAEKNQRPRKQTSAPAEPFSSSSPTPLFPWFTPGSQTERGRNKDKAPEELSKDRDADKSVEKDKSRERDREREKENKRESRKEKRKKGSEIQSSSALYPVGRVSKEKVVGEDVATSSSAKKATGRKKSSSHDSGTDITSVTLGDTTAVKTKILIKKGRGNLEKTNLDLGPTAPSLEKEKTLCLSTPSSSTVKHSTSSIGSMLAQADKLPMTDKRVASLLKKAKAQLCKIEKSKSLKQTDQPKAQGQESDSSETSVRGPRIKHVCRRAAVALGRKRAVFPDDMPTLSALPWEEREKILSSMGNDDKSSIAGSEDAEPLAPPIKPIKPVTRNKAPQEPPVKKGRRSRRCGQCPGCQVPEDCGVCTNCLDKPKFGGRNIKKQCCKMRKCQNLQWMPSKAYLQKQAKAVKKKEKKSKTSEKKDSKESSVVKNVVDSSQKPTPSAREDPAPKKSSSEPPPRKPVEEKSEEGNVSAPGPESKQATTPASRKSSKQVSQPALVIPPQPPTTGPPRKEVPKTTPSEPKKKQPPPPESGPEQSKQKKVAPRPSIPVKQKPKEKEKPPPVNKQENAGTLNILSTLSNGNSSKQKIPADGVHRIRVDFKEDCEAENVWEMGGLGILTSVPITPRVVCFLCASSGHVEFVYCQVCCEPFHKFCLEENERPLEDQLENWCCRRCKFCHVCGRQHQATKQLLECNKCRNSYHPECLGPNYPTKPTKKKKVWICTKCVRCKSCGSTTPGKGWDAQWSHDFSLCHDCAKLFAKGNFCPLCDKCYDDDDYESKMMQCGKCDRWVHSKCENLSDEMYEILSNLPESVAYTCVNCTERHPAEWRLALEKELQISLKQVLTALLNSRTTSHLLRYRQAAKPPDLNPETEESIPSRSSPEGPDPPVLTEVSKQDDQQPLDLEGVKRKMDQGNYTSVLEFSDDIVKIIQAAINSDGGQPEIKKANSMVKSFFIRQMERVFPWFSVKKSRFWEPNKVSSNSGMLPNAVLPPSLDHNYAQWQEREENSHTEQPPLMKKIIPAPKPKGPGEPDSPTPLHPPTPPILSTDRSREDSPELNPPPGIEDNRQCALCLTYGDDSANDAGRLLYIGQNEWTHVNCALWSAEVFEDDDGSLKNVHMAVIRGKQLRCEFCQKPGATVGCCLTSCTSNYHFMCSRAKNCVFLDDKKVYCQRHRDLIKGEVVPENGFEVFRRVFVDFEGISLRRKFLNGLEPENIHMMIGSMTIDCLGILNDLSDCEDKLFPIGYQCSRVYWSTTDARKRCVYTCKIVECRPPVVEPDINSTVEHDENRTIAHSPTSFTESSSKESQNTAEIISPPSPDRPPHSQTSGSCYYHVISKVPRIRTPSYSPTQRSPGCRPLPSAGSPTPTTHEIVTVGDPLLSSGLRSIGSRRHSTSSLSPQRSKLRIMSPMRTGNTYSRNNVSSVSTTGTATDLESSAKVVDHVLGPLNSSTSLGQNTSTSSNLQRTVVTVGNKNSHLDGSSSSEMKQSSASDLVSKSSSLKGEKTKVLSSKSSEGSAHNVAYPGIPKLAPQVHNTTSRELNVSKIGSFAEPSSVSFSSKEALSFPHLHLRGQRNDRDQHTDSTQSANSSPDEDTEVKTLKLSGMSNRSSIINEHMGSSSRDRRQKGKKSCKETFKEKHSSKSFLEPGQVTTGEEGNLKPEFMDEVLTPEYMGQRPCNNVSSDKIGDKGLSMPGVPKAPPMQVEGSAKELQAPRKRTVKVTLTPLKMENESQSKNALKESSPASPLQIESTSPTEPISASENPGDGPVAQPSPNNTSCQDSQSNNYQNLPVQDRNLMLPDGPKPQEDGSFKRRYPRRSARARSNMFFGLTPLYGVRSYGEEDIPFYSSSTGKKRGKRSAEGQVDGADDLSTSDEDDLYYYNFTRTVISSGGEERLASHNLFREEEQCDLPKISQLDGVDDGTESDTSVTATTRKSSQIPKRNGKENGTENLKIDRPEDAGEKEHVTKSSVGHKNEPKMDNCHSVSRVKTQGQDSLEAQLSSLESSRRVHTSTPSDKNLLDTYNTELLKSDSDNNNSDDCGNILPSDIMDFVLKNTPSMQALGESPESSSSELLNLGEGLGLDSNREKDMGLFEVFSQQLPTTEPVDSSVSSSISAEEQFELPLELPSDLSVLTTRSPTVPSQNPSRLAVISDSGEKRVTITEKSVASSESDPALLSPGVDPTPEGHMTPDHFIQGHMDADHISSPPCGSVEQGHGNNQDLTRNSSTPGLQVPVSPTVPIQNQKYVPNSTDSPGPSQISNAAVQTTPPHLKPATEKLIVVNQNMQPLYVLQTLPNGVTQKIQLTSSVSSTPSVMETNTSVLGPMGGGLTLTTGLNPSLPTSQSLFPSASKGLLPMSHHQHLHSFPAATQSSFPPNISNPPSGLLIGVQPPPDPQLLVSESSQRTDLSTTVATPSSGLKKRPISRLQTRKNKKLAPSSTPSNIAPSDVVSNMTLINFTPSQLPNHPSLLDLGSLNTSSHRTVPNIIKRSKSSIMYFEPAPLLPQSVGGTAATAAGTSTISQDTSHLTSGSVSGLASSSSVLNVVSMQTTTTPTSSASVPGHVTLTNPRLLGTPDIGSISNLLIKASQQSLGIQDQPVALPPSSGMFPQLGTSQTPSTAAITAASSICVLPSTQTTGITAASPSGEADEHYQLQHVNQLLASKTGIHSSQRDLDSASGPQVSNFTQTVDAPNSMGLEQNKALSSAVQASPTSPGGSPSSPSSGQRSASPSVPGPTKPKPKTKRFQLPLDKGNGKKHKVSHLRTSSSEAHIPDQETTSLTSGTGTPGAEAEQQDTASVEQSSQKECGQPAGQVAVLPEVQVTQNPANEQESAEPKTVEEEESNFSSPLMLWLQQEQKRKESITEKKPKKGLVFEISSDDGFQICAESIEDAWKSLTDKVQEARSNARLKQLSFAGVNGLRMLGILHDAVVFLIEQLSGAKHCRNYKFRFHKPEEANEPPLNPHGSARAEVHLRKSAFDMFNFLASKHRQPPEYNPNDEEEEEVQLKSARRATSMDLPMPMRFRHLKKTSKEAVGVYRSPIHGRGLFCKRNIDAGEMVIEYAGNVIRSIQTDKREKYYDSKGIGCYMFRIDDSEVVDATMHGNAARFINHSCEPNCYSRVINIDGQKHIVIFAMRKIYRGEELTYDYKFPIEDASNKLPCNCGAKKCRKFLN

Results are given in words; binding and its absence hold for the method and conditions named. Binding seen in cells or lysates may run through a third protein. Some entries that bind do so weakly or less than the wild type.

The target of this test is MLL-VC210 (UniProt Q03164). Description: split reporter; BiFC in HEK293T cells co-transfected with MLL-VC210 and VN210-menin; cells treated with complexes SM_1 or SM_2.

B1: VN210-menin (protein, UniProt O00255 1-610)
chain: MGLKAAQKTLFPLRSIDDVVRLFAAELGREEPDLVLLSLVLGFVEHFLAVNRVIPTNVPELTFQPSPAPDPPGGLTYFPVADLSIIAALYARFTAQIRGAVDLSLYPREGGVSSRELVKKVSDVIWNSLSRSYFKDRAHIQSLFSFITGTKLDSSGVAFAVVGACQALGLRDVHLALSEDHAWVVFGPNGEQTAEVTWHGKGNEDRRGQTVNAGVAERSWLYLKGSYMRCDRKMEVAFMVCAINPSIDLHTDSLELLQLQQKLLWLLYDLGHLERYPMALGNLADLEELEPTPGRPDPLTLYHKGIASAKTYYRDEHIYPYMYLAGYHCRNRNVREALQAWADTATVIQDYNYCREDEEIYKEFFEVANDVIPNLLKEAASLLEAGEERPGEQSQGTQSQGSALQDPECFAHLLRFYDGICKWEEGSPTPVLHVGWATFLVQSLGRFEGQVRQKVRIVSREAEAAEAEEPWGEEAREGRRRGPRRESKPEEPPPPKKPALDKGLGTGQGAVSGPPRKPPGTVAGTARGPEGGSTAQVPAPTASPPPEGPVLTFQSEKMKGMKELLVATKINSSAIKLQLTAQSQVQMKKQKVSTPSDYTLSFLKRQRKGL
Take B1: the binding entry is on record as “binds”.
